Measured values taken from paper PMC8718266.
These are yes or no findings as the source states them, for the method shown. In cells and extracts the contact can be indirect. Some results given as binding are weak or reduced against the parent protein; the word gives no strength.

The chains behind the UniProt entries cited, without tags or fusion partners.
UniProt Q60843: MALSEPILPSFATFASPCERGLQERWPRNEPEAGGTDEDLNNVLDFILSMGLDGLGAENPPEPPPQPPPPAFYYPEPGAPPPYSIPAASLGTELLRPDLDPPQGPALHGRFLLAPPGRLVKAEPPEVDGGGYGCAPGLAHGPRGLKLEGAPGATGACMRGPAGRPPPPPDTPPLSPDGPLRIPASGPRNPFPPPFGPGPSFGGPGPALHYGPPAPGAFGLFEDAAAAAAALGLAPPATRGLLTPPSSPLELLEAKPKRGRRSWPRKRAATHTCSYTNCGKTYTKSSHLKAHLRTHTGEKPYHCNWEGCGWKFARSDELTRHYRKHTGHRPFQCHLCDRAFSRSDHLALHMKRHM
UniProt Q8VBV4: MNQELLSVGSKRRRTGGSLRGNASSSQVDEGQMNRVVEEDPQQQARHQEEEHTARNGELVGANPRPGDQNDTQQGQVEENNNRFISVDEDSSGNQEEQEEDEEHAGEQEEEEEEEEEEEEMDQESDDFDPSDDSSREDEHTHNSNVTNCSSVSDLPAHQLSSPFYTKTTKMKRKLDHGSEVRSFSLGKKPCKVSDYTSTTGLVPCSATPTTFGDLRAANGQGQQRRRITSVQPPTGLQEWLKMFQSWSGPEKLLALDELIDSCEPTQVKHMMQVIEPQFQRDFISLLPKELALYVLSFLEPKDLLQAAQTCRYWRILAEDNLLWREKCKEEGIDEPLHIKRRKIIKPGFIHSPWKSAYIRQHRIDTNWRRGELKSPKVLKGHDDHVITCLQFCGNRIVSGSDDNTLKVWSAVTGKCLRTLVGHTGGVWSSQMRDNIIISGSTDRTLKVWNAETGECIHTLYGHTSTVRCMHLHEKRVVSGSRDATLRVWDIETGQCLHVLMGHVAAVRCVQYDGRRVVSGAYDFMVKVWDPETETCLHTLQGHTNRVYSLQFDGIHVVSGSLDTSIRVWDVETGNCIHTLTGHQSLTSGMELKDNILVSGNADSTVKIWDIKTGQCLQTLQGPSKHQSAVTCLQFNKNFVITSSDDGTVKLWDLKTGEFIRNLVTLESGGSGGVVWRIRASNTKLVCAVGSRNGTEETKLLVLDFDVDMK

Biological target: 3xFLAG-KLF2 wild-type (UniProt Q60843)
Assay: co-IP; mESCs transfected with HA-FBW7 and empty vector or the indicated 3xFLAG-KLF2 construct; FLAG IP; HA-FBW7 detected by immunoblotting

binding: binds
Substance: HA-FBW7 (from UniProt Q8VBV4 1-710)
